Source: publication PMC4972190, “In vitro activity of salinomycin and monensin derivatives against Trypanosoma brucei” (Parasites & Vectors, 2016)

Test system: Bloodstream forms of T. brucei (clone 427-221a)
Experiment: Toxicity assay (resazurin, 72 h) on bloodstream forms of T. brucei
Assay type: cell-based, Trypanosoma brucei
Details: relative to salinomycin
Procedure: Bloodstream forms of T. brucei (clone 427-221a) and human myeloid leukaemia HL-60 cells were grown in Baltz medium and RPMI medium, respectively. Both culture media were supplemented with 16.7 % (v/v) heat-inactivated foetal calf serum. All cultures were maintained in a humidified atmosphere containing 5 % CO2 at 37 °C.
Cells were seeded in 96-well plates in a final volume of 200 μl of their respective culture medium containing 10-fold serial dilutions of ionophore derivatives (10^-4 to 10^-10 M) and 1 % DMSO. Wells containing medium and 1 % DMSO served as controls. The initial cell densities were 1 × 10^4/ml for T. brucei and 1 × 10^5/ml for HL-60 cells. After 24 h incubation at 37 °C in a humidified atmosphere containing 5 % CO2, 20 μl of a 0.44 mM resazurin solution prepared in PBS was added and the cells were incubated for a further 48 h so that the total incubation time was 72 h. Thereafter, the plates were read on a microplate reader using a test wavelength of 570 nm and a reference wavelength of 630 nm. The 50 % growth inhibition (GI50) value, i.e. the concentration of a compound necessary to reduce the growth rate of cells by 50 % compared to the control was determined by linear interpolation according to the method described in [22]. The minimum inhibitory concentration (MIC) values, i.e. the concentration of the drug at which all trypanosome and human cells were killed, was determined microscopically. Each compound was independently tested three times.

## CC[C@@]1([C@@H]2O[C@@H]([C@H]3O[C@@](O)(CO)[C@H](C)C[C@@H]3C)C[C@@H]2C)CC[C@H]([C@]2(C)CC[C@]3(C[C@H](O)[C@@H](C)[C@@H]([C@@H](C)[C@@H](OC)[C@H](C)C(=O)O)O3)O2)O1 [Monensin, monensin]
  times more trypanocidal than salinomycin: 6–10

## CCCCNC(=O)C(CC)C1CCC(C)C(C(C)C(O)C(C)C(=O)C(CC)C2OC3(C=CC(O)C4(CCC(C)(C5CCC(O)(CC)C(C)O5)O4)O3)C(C)CC2C)O1 (stereo not drawn) [SAL-AM2, salinomycin n-butyl amide]
  times more trypanocidal than salinomycin: 4.5

## CCCCOC(=O)C(CC)C1CCC(C)C(C(C)C(O)C(C)C(=O)C(CC)C2OC3(C=CC(O)C4(CCC(C)(C5CCC(O)(CC)C(C)O5)O4)O3)C(C)CC2C)O1 (stereo not drawn) [SAL-E4]
  times less trypanocidal than its parent compound: 17
